Drawing on patent publication US20090061443A1, this text covers binding for one substance.

By UniProt entry, the sequences of proteins in these tests, tags left out. Where a name states a change or a piece, a line headed by the entry shows the natural chain unless it says otherwise.
UniProt Q13492: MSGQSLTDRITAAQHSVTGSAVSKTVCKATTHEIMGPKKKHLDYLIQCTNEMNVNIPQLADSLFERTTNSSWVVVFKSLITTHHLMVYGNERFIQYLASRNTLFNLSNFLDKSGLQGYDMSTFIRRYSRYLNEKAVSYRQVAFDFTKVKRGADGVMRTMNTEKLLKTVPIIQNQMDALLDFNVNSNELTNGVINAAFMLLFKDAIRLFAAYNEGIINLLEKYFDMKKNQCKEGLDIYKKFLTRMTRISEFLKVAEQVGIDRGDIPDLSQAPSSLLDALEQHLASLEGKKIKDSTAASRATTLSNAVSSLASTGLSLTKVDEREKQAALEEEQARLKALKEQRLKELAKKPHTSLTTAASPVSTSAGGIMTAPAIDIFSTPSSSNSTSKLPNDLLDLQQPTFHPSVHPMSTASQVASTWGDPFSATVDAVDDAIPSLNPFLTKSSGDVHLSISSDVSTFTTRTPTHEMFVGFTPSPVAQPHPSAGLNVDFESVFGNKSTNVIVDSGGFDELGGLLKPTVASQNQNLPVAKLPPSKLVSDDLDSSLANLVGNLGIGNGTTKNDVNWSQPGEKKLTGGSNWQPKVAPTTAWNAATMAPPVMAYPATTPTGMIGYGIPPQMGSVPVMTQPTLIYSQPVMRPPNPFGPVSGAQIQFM
UniProt P55197: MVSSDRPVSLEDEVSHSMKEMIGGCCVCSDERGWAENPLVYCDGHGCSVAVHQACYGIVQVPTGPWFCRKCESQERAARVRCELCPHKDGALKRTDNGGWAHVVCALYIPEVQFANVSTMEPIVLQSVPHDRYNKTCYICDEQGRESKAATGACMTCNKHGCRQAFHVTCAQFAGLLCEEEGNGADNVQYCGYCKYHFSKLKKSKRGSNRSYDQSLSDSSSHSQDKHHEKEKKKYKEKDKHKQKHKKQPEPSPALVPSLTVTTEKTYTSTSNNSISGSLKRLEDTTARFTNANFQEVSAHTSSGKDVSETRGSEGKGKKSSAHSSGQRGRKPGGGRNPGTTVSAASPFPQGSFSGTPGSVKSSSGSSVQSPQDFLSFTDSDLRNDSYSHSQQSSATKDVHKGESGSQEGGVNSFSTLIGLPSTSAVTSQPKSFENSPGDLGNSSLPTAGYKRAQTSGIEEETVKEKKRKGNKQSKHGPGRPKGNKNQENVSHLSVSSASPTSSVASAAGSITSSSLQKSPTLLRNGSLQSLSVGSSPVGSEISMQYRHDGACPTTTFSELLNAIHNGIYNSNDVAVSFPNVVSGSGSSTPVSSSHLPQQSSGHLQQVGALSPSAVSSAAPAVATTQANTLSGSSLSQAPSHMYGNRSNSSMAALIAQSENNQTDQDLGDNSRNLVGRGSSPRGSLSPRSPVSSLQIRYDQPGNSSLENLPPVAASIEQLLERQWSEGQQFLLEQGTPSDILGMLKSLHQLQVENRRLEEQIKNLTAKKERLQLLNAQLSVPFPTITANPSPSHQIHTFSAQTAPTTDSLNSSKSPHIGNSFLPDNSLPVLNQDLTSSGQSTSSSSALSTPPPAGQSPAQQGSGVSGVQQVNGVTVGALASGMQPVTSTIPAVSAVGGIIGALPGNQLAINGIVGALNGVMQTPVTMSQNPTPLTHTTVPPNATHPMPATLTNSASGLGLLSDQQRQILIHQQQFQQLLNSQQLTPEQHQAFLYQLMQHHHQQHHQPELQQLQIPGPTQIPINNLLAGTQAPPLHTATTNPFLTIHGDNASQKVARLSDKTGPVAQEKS
UniProt Q8TEK3: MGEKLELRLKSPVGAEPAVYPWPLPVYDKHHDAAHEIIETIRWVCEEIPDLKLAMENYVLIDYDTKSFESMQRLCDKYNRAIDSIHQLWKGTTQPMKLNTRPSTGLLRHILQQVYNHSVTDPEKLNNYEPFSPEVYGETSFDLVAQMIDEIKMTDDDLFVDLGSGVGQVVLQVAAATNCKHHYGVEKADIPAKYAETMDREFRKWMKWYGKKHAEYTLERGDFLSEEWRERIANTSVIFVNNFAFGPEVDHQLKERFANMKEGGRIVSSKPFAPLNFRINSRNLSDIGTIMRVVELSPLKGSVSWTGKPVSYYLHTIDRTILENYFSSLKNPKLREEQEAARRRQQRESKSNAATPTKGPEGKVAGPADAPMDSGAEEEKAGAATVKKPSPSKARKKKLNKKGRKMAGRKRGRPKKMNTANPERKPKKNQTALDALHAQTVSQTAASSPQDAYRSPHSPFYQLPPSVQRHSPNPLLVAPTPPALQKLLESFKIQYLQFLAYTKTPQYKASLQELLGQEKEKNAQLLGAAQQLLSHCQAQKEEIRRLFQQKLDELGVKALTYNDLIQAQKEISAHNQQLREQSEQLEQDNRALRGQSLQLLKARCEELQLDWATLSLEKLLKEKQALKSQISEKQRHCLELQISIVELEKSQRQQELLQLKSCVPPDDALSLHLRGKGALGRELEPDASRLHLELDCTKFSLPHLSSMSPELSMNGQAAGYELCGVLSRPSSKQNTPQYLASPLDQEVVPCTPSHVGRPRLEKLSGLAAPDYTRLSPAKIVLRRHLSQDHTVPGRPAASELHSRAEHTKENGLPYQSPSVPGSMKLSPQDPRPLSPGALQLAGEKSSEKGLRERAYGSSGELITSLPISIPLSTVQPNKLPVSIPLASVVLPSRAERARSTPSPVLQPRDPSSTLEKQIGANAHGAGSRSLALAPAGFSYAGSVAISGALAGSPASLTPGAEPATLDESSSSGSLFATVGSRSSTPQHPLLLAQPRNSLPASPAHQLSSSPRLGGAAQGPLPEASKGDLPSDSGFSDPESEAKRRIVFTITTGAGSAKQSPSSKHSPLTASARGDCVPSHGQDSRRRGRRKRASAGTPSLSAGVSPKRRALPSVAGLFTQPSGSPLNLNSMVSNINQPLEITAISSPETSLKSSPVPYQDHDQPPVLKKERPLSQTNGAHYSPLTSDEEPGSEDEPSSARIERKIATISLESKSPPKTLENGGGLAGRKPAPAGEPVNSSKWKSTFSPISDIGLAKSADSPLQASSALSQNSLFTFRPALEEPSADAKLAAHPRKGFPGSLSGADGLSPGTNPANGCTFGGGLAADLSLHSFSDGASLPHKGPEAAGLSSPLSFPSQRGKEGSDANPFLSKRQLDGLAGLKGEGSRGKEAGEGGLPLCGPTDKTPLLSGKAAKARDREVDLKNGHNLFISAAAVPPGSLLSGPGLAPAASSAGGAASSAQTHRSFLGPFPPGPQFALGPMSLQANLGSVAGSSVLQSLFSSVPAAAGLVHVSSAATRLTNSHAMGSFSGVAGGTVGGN

The target of assay [1] is T1, Flag-CALM-AF10 fusion protein (wild-type) (human) (UniProt Q13492+P55197). The assay is described as follows: co-immunoprecipitation from transfected 293T cells (anti-Flag M2 agarose, wash at 500 mM KCl, Western blot with hDOT1L and Flag antibodies). Background: In western blotting, separated proteins are transferred to a membrane and probed.
Assay [2] addresses T1, Flag-CALM-AF10 fusion protein (wild-type) (human). The assay is described as follows: co-immunoprecipitation from transfected 293T cells (anti-Flag M2 agarose, Western blot).

Results are given in words; binding and its absence hold for the method and conditions named. Binding seen in cells or lysates may run through a third protein. Some binding calls cover weakened binding; strength is not graded here.

As for “hDOT1L (human DOT1-like protein) (from UniProt Q8TEK3 1-1537) (enzyme)”, the binding result in assay [1] and in assay [2] was “binds” throughout.
